# Source: PubChem BioAssay AID1259254 (NCATS, 2017)
# Assay: 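Finding genes that stop cells copying their DNA twice in one cycle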 (primary screen)
# Cell system: human HCT116 colorectal cancer cells
# Knock-down reagent: single siRNA against human genes
# Timing: 3 days
# Measurement: 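Nuclei stained with Hoechst and imaged; cell-cycle phase assigned by DNA content; G2 share scaled per plate, non-targeting siRNA 0%, GMNN siRNA 100%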
# Scale: G2 robust z-score and G2 cells, % of GMNN control: higher = more G2 cells, more excess DNA replication
# Rule for the call: 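An siRNA counts as active if its G2 robust z-score lies at least 5 MADs above the screen median; here such calls match roughly 38% of GMNN control or more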
# This is a random part of about 59,000 reagents tested. In the full data, about 1,550 (2.6%) got an active call. 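G2 share is only a proxy for re-replication; each gene was hit by three separate siRNAs, and active genes were retested.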 Unmarked entries are inactive. Reagents against one gene are numbered here. Further read-outs or replicates are left out here. Not given: the amount of reagent.
gene,reagent no.,G2 robust z-score,"G2 cells, % of GMNN control"
PRSS55 (serine protease 55),1,0.835,8.84
PRSS55 (serine protease 55),2,-0.414,0.055
PRSS55 (serine protease 55),3,0.891,9.23
UPP1 (uridine phosphorylase 1),1,5.37 (active),40.7
UPP1 (uridine phosphorylase 1),2,-0.664,-1.71
UPP1 (uridine phosphorylase 1),3,1.44,13.1
PCGF1 (polycomb group ring finger 1),1,10.1 (active),73.8
PCGF1 (polycomb group ring finger 1),2,2.14,18
PCGF1 (polycomb group ring finger 1),3,2.09,17.7
ADARB2 (adenosine deaminase RNA specific B2 (inactive)),1,-0.19,1.63
ADARB2 (adenosine deaminase RNA specific B2 (inactive)),2,1.31,12.2
ADARB2 (adenosine deaminase RNA specific B2 (inactive)),3,0.604,7.22
ETV1 (ETS variant transcription factor 1),1,-0.553,-0.923
ETV1 (ETS variant transcription factor 1),2,-0.212,1.48
ETV1 (ETS variant transcription factor 1),3,-0.163,1.82
H2BC4 (H2B clustered histone 4),1,-1.12,-4.89
H2BC4 (H2B clustered histone 4),2,0.747,8.22
H2BC4 (H2B clustered histone 4),3,0.614,7.29
NPM1P39 (nucleophosmin 1 pseudogene 39),1,-0.526,-0.737
NPM1P39 (nucleophosmin 1 pseudogene 39),2,-0.351,0.496
NPM1P39 (nucleophosmin 1 pseudogene 39),3,0.278,4.93
CRYGN (crystallin gamma N),1,-0.239,1.28
CRYGN (crystallin gamma N),2,0.587,7.1
CRYGN (crystallin gamma N),3,-0.853,-3.03
PDLIM1 (PDZ and LIM domain 1),1,0.976,9.83
PDLIM1 (PDZ and LIM domain 1),2,-0.233,1.33
PDLIM1 (PDZ and LIM domain 1),3,-1.28,-6.03
IFNA10 (interferon alpha 10),1,-0.384,0.267
IFNA10 (interferon alpha 10),2,-0.162,1.83
IFNA10 (interferon alpha 10),3,2.71,22

Reformatted: 2 of the entries above.
PCGF1 (polycomb group ring finger 1) #2 | G2 robust z-score: 2.14; G2 cells, % of GMNN control: 18
PCGF1 (polycomb group ring finger 1) #3 | G2 robust z-score: 2.09; G2 cells, % of GMNN control: 17.7
